According to paper PMC10765725:
These are yes or no findings as the source states them, for the method shown. In cells and extracts the contact can be indirect. Some entries that bind do so weakly or less than the wild type.

Protein sequences, listed by entry. Tags and fused reporters are not part of them.
UniProt P51150: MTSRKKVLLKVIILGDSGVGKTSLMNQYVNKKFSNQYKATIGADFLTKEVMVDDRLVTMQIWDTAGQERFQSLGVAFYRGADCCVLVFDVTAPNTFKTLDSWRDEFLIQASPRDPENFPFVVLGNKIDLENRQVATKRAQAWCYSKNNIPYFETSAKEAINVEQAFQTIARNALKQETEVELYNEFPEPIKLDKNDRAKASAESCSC
UniProt P56962: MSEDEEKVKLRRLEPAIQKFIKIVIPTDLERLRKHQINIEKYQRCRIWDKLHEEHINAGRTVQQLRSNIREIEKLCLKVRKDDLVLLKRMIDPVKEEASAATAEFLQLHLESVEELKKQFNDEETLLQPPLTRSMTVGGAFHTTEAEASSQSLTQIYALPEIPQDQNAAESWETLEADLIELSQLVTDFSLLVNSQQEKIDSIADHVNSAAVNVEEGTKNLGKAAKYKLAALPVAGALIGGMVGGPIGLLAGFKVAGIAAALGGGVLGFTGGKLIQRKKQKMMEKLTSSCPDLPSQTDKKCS

Assays:
[1] = target: Rab7 (mouse hippocampus) (mouse (endogenous in hippocampus)) (UniProt P51150); experiment: co-IP; anti-Rab7 antibody on magnetic beads, incubated 4 h at 4 °C with mouse hippocampus lysate (Nonidet P-40 lysis buffer), called immunoisolation of late endosomes; blots for CCZ1 and Stx17; mice of the control, Meth and Meth + AAV-Stx17 groups
Flag-tagged Stx17 = Flag-tagged Stx17 (UniProt P56962); experiment: co-IP; immunoprecipitation of Flag-Stx17 from HEK293T cell lysate (Nonidet P-40 lysis buffer, magnetic beads), blots for endogenous LC3-II/I and CCZ1; cells under Meth treatment or starvation

binding [1] | binding (Flag-tagged Stx17) | Binder
binds | – | Stx17 (mouse hippocampus) (protein, UniProt Q9D0I4 1-301) MSEDEEKVKLRRLEPAIQKFTKIVIPTDLERLRKHQINIEKYQRCRIWDKLHEEHINAGRTVQQLRSNIREMEKLCLKVHKDDLVLLKRMIDPVKEAAATATAEFLQLHLESVEELKKQVNDEELLQPSLTRSTTVDGVLHTGEAEAASQSLTQIYALPEIPQDQNAAESWETLEADLIELSHLVTDMSLLVSSQQEKIDSIADHVNSAAVNVEEGTKNLQKAAKYKLAALPVAGALIGGVVGGPIGLLAGFKVAGIAAALGGGVLGFTGGKLIQRRKQKMMEKLTSSCPDLPSQSDKKRS
– | binds | endogenous CCZ1 (HEK293T) (protein, UniProt P86791 1-482) MAAAAAGAGSGPWAAQEKQFPPALLSFFIYNPRFGPREGQEENKILFYHPNEVEKNEKIRNVGLCEAIVQFTRTFSPSKPAKSLHTQKNRQFFNEPEENFWMVMVVRNPIIEKQSKDGKPVIEYQEEELLDKVYSSVLRQCYSMYKLFNGTFLKAMEDGGVKLLKERLEKFFHRYLQTLHLQSCDLLDIFGGISFFPLDKMTYLKIQSFINRMEESLNIVKYTAFLYNDQLIWSGLEQDDMRILYKYLTTSLFPRHIEPELAGRDSPIRAEMPGNLQHYGRFLTGPLNLNDPDAKCRFPKIFVNTDDTYEELHLIVYKAMSAAVCFMIDASVHPTLDFCRRLDSIVGPQLTVLASDICEQFNINKRMSGSEKEPQFKFIYFNHMNLAEKSTVHMRKTPSVSLTSVHPDLMKILGDINSDFTRVDEDEEIIVKAMSDYWVVGKKSDRRELYVILNQKNANLIEVNEEVKKLCATQFNNIFFLD
binds | – | CCZ1 (mouse hippocampus) (protein, UniProt Q8C1Y8 1-480) MAAAAAGPGAWAAQEKQFPPALLSFFIYNPRFGPREGEEENKILFYHPNEVEKNEKIRNVGLCEAIVQFTRTFSPSKPAKSLHTQKNRQFFNEPEENFWMVMVVRNPIIEKQSKDGKAVVEYQEEELLDKVYSSVLQQCYSMYKLFNGTFLKAMEDGGVKLLKERLEKFFHRYLQTLHLQSCDLLDIFGGISFFPLDKMTYLKIQSFINRMEESLSVVKYTAFLYNDQLIWSGLEQDDMRILYKYLTTSLFPRHIEPELAGRDSPVRAEMPGNLQHYGRFLTGPLNLNDPEAKCRFPKIFVNTDDTYEELHLIVYKAMSAAVCFMIDASTPLTLDFCRRLDSIVGPQLTVLASDICEQFNINKRISGSEKEPQFKFIYFNHMNLAEKSTIHMRKTPSVSLTSVHPDLMKILGDINSDFTRADEDEEIIVKAMSDYWVVGKKSDQRELYVILSQKNANLIEVNEEVKKLCATQFNNIFFLD
